Measured values as given in patent publication US4898855A, “Deuterated analogs of 1,25-dihydroxycholecalciferol” (Hoffman-La Roche Inc., priority 1987, dated 1990).
Like-named read-outs stand apart in the source and are kept apart here.

Tested on: vitamin D deficient rats
Format: in vivo, rat
Details: 3 weeks, vitamin D3 deficient diet
Experimental: Rats were placed on the following protocol. […]
Ten 3 week old rats were maintained on vitamin D3 deficient diet for 6 weeks.
The following parameters in Table III were evaluated, by means which are conventional in the art, after completion the above treatments. Bone mass is measured by known histomorphometric methods.

[1] = high dose: daily 60 ng 1,25-(OH)2 D3 or 66 ng Hexa ^2 H
[2] = low dose: daily 15 ng 1,25-(OH)2 D3 or 16.5 ng Hexa ^2 H

[2H]C([2H])([2H])C(O)(CCC[C@@H](C)[C@H]1CC[C@H]2/C(=C/C=C3/C[C@@H](O)C[C@H](O)C3=C)CCC[C@]12C)C([2H])([2H])[2H] [1,25-(OH)2 D3 -Hexa^2 H, 26,26,26,27,27,27-hexadeutero-1α,25-dihydroxycholecalciferol]
Serum PO4^2- [1]: 6.61 ± 0.36 mg/dL | Serum PO4^2- [2]: 7.08 ± 0.07 mg/dL

C=C1/C(=C\C=C2/CCC[C@]3(C)[C@@H]([C@H](C)CCCC(C)(C)O)CC[C@@H]23)C[C@@H](O)C[C@@H]1O [1,25-(OH)2 D3, 1α,25-dihydroxycholecalciferol, reference compound]
Serum PO4^2- [1]: 6.58 ± 0.30 mg/dL | Serum PO4^2- [2]: 7.61 ± 0.31 mg/dL
